This data set in a line: Transport experiment across Caco-2 cell monolayer (Papp). The class given is in vitro ADME. The settings on record: human, standard compounds, validation of the monolayer model. On the procedure:
For cells differentiation to form a confluent monolayer, Caco-2 cells were seeded into the inserts of the 12-well Transwell plates at the density of 1.0×10^5 cells/cm^2. The culture medium was replaced on every other day in the first week, and then at daily intervals for the apical (AP) side and 2 days intervals for the basal (BL) side until the transport experiment was performed 21 days after seeding. The AP and BL sides contained 0.5 and 1.5 mL of culture medium, respectively. […] The cell inserts were considered as qualified only if the resistance reached above 600 Ω cm^2.
On day 21, the transport experiment was initiated by removal of the culture medium from AP and BL sides. The Caco-2 monolayers were rinsed twice with pre-warmed Hanks balanced salt solution (HBSS) and were incubated with the same solution at 37°C for 30 min. […]
The apparent permeability coefficients (Papp) were determined in this study by HPLC quantification of the compounds in the receiver chamber after transport across the Caco-2 monolayer. […] The percentage transported (%) was calculated using the formula % transported = QB/(CS×VD)×100, wherein QB was the quantity of compound in the receiver compartment (μmol); CS was the concentration of test compound in the donor compartment (μmol/mL); VD was the liquid volume of the donor compartment (mL). […]

What is called Papp is the rate of passage across a membrane or cell layer, normalised by area and donor concentration. A low value points to slow passage.

As to `CC(C)NCC(O)COc1ccc(CC(N)=O)cc1` (stereo not shown) [atenolol, reference compound], the Papp came out at 0.463 ×10⁻⁶ cm/s.

These data come from publication PMC4366261, “Characterization of the Intestinal Absorption of Seven Flavonoids from the Flowers of Trollius chinensis Using the Caco-2 Cell Monolayer Model” (PLoS ONE, 2015).
